Measured values from publication PMC7819943, “Rice protein-binding microarrays: a tool to detect cis-acting elements near promoter regions in rice”.
This is one part of the list.

target: T1, OsSMF1 (Oryza sativa, UniProt Q6ZLB0 1-436); experiment: protein-binding microarray (RPBM); PBS, 2% BSA, 51.3 ng/ul salmon testes DNA, 50 uM zinc acetate, 200 nM TF, 25 C, 1 h; high values mean tight binding; conditions: protein: recombinant; tags: N-terminal polyhistidine and DsRed monomer fusion (pET32a); chain copies: 2; label: CyDye5-dUTP incorporated in the synthesized complementary strand; 3' TTTTT single-stranded linker to array surface; dsDNA, one strand shown
T1 sequence: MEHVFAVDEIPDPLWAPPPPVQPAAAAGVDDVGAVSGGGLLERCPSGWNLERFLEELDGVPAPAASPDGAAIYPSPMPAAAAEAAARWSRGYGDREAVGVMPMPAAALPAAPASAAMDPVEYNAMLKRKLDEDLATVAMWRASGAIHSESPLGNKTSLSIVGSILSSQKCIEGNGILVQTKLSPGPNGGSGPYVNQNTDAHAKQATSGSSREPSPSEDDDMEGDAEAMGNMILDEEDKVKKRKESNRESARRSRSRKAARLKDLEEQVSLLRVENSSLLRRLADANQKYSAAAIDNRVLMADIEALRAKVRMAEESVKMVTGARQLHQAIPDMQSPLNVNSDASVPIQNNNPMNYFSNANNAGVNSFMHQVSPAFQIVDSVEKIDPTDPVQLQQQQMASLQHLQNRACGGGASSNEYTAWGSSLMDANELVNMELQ
Procedure, shortened: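 Using Ni–NTA, transcription factors fused N-terminally to polyhistidine and DsRed were purified after expression in E. coli BL21-CodonPlus. These were incubated at 200 nM with a blocked, double-stranded custom Agilent array for 1 h at 25 °C in a buffer containing 50 µM zinc acetate, and the array was washed. The binding signal is per-feature fluorescence intensity (arbitrary units) on an Axon 4000B scanner.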

Row | Sequence | binding signal
1 | TTATTATGAAAATATATTTAATTATTGATTTGATGAAACTCGGAGTCACCTAGTGCAG | 21300 fluorescence intensity (a.u.)
2 | ATATATAATCAACATGATGACGGCAATTGCAGCCCGAAACCGGAGTCACCTAGTGCAG | 3500 fluorescence intensity (a.u.)
3 | GAATATATCCACGTAATTTGTTCACTATCACACACAATTGCGGAGTCACCTAGTGCAG | 9460 fluorescence intensity (a.u.)
4 | TACATATGATGAGGACAAATTCAGGGGTAGCGTCATTGCCCGGAGTCACCTAGTGCAG | 3450 fluorescence intensity (a.u.)
5 | CGCCAACTCAACGCTGAAGCCGCTGCCTCACCATCTCGTCCGGAGTCACCTAGTGCAG | 3250 fluorescence intensity (a.u.)
6 | TCCTCTTAACGAATAGGAGACCCCACGTGGCACGTCGAGCCGGAGTCACCTAGTGCAG | 9700 fluorescence intensity (a.u.)
7 | ATAAAGAAGGGAGGCAGCGGGCGAGCTGTAAAGGAGTACACGGAGTCACCTAGTGCAG | 32300 fluorescence intensity (a.u.)
8 | TCCTCAGCCTCGACGCCGCCTTCCTCTCCTCCTGCGCCGGCGGAGTCACCTAGTGCAG | 3700 fluorescence intensity (a.u.)
9 | CCCAAAAGGACGCGTAAGCAACGCTGCAGACGCAGCAATCCGGAGTCACCTAGTGCAG | 3670 fluorescence intensity (a.u.)
10 | TTAGACACGTAGGTGCCATGTCAGCCAAAACCACCGAGGGCGGAGTCACCTAGTGCAG | 17100 fluorescence intensity (a.u.)
11 | CAAAATAGAGTAAAACAATCGCGTGACATCATCTTTATTTCGGAGTCACCTAGTGCAG | 6960 fluorescence intensity (a.u.)
12 | ATAAGTCCTACCTATGAGTTCCTTTCCATACTTGTCCAAGCGGAGTCACCTAGTGCAG | 21200 fluorescence intensity (a.u.)
13 | AATCATGACACGTAAATATAATGGAGAAGTCTTGTGAACCCGGAGTCACCTAGTGCAG | 3680 fluorescence intensity (a.u.)
14 | TCTAAACTTGCAGATCATACGTTTAGATCATCCAACTTGTCGGAGTCACCTAGTGCAG | 28000 fluorescence intensity (a.u.)
15 | TGCCCGGCTCGGCTACCCCGTCGCCACCGCCGTTCGTTTCCGGAGTCACCTAGTGCAG | 3190 fluorescence intensity (a.u.)
16 | ACGACTCTTGGTGCCACGTGTCGGGCTCATACGATGCCAGCGGAGTCACCTAGTGCAG | 27600 fluorescence intensity (a.u.)
17 | ATAGTACAGATCCAACGGCGATGACGTGAACATCCACCCTCGGAGTCACCTAGTGCAG | 5070 fluorescence intensity (a.u.)
18 | ACTGGGGAAGGAATCACACCGTGGGCATGCTGTTGACTAGCGGAGTCACCTAGTGCAG | 3370 fluorescence intensity (a.u.)
19 | GCAGAAAAGACTTCACGCACAGATGGTTTATTGGAGTTGGCGGAGTCACCTAGTGCAG | 3790 fluorescence intensity (a.u.)
20 | CCACCCTCGCGCGGACGCGGCGCCCCTCCCCTTTGGCGCCCGGAGTCACCTAGTGCAG | 3300 fluorescence intensity (a.u.)
21 | ATTCATATATATGTGTGCCTAGATTCATTAACATCTATATCGGAGTCACCTAGTGCAG | 3440 fluorescence intensity (a.u.)

3 records picked at random from the list so far:
Row | Sequence | binding signal
16 | ACGACTCTTGGTGCCACGTGTCGGGCTCATACGATGCCAGCGGAGTCACCTAGTGCAG | 27600 fluorescence intensity (a.u.)
7 | ATAAAGAAGGGAGGCAGCGGGCGAGCTGTAAAGGAGTACACGGAGTCACCTAGTGCAG | 32300 fluorescence intensity (a.u.)
6 | TCCTCTTAACGAATAGGAGACCCCACGTGGCACGTCGAGCCGGAGTCACCTAGTGCAG | 9700 fluorescence intensity (a.u.)

Following part

Row | Sequence | binding signal
22 | CTGCATGGAAGGGGTACAGTTCTTTGCCGAACGGGAGTCCCGGAGTCACCTAGTGCAG | 24300 fluorescence intensity (a.u.)
23 | GGCGGCCTAAGAGCATTTGTAGGAGTCCCACGTGGCAGCTCGGAGTCACCTAGTGCAG | 23100 fluorescence intensity (a.u.)
24 | AAATTACCACAATAGGTTTATGTTAGCCTGGTGGTCATGCCGGAGTCACCTAGTGCAG | 4480 fluorescence intensity (a.u.)
25 | CGCTTTAACATTTAAATTTAGCTTTAAAAGTTTATTATGGCGGAGTCACCTAGTGCAG | 15300 fluorescence intensity (a.u.)
26 | ACCAACACCCGCCTCGCCGCCACCGCCACCTCCCCTTCTTCGGAGTCACCTAGTGCAG | 4710 fluorescence intensity (a.u.)
27 | AGATGGAGCAGGCATCAACTGGTGTTGGTCCTATGGACCGCGGAGTCACCTAGTGCAG | 3320 fluorescence intensity (a.u.)
28 | AACTATAGATCCAAGTGAGGAAGCTATATTCCCAAATTTTCGGAGTCACCTAGTGCAG | 46000 fluorescence intensity (a.u.)
29 | CTATAATTTAAACATGTAAAGTTTACGTGTATATAAATTTCGGAGTCACCTAGTGCAG | 3160 fluorescence intensity (a.u.)
30 | GGACAGGCTACCTGCAGTGATGAACGGCGTCGATCACCACCGGAGTCACCTAGTGCAG | 14900 fluorescence intensity (a.u.)
31 | GATCGATGGAGTGAGACGCATCAGGTTGCTTCCGGCGACGCGGAGTCACCTAGTGCAG | 10900 fluorescence intensity (a.u.)
32 | CAACGCACGCACGCGCCATCACCACCACCTCGACGCCGGCCGGAGTCACCTAGTGCAG | 3570 fluorescence intensity (a.u.)
33 | AAATAGGAGTTACATTTCGTACGTGTTATCCAACGGCCCACGGAGTCACCTAGTGCAG | 4280 fluorescence intensity (a.u.)
34 | TAACTAATTACACATATTGCGTGTAAATTGCGAGACAAATCGGAGTCACCTAGTGCAG | 4240 fluorescence intensity (a.u.)
35 | TGCACGCTAATTTGCCTTGCTGCTGCTGCTACTAGGGCGGCGGAGTCACCTAGTGCAG | 3450 fluorescence intensity (a.u.)
36 | CAAGTGTTGCAAGTGCATGCGCGTCACTGGTTTGCGGCGGCGGAGTCACCTAGTGCAG | 4820 fluorescence intensity (a.u.)
37 | ACACACTTTTCGCCACCGTGGTGAGATGATGATTACTCATCGGAGTCACCTAGTGCAG | 8100 fluorescence intensity (a.u.)
38 | CTTGGTGGACCGCGTGATGACGTCAGCAGCGGCTCGGCGACGGAGTCACCTAGTGCAG | 14700 fluorescence intensity (a.u.)
39 | GTATTCCAGTTGGCAGCCCAGTTATAGTATCTGTATTTGTCGGAGTCACCTAGTGCAG | 4030 fluorescence intensity (a.u.)
40 | GAGGAGAGGGGAGGGGAACCCAAGCAAGCAATCAGCGTGGCGGAGTCACCTAGTGCAG | 3700 fluorescence intensity (a.u.)
41 | TTACTCTAATCAGGAGGTTTATTCCTCTTCGTGGATCGAGCGGAGTCACCTAGTGCAG | 28100 fluorescence intensity (a.u.)
42 | GTGCGGGATCCAGTCAGCACCGCCGCCCTCCCGCCCGGTTCGGAGTCACCTAGTGCAG | 7160 fluorescence intensity (a.u.)
